Data reported in PMC7058931, “DNA topoisomerase IIIβ promotes cyst generation by inducing cyst wall protein gene expression in Giardia lamblia”.
The comparison behind a weaker result is the experiment's own reference, which may not be listed here. Tags and fusion partners may be left off the protein sequences shown.

Target: T1, TOP3β (DNA topoisomerase IIIβ) (Giardia lamblia WB) (UniProt A8B577)
T1 sequence (looked up): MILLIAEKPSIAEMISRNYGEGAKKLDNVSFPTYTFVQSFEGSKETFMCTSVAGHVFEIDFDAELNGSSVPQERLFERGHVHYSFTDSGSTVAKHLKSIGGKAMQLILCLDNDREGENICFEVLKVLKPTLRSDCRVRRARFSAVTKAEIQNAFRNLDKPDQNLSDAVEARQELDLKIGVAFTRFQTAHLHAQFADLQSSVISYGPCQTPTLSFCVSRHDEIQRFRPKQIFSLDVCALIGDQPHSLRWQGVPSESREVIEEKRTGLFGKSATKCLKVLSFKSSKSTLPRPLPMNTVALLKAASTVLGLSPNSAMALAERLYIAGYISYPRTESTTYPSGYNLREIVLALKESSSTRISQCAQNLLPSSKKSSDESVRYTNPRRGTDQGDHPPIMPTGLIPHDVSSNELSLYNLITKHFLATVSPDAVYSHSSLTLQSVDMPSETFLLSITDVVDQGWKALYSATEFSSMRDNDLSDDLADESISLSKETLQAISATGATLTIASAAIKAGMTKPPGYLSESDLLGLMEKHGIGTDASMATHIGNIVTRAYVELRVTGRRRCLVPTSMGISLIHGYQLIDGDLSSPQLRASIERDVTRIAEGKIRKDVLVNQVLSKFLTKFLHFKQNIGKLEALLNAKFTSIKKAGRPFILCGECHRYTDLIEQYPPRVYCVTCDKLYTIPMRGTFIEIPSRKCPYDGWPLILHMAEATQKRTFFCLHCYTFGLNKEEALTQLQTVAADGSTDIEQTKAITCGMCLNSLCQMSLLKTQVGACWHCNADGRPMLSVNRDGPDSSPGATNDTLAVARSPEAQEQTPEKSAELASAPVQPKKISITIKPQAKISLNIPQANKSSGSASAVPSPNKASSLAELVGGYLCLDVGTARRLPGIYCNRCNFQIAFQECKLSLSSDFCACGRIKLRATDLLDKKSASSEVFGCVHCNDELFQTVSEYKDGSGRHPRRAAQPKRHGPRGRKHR
Experiment: EMSA
Conditions: EMSA: 0.02 pmol 32P probe, 5 ng protein, 20 µl, 0.5 µg poly(dI-dC), 15 min at room temperature, 6% acrylamide gel; recombinant protein; residues 1-973; protein details: C-terminal V5 and His; label: 5'-32P

Sequence: AAAAAAAAAAAAAAAAAAAAAAA (double strand) [poly A]
- binding result: binds more weakly
